Assay results: PMC12636710
These are yes or no findings as the source states them, for the method shown. In cells and extracts the contact can be indirect. Some entries that bind do so weakly or less than the wild type.

Sequences of proteins named here, by UniProt entry; tags and fusion partners are left off. Residues count along the entry.
UniProt P02649, residues 19-317: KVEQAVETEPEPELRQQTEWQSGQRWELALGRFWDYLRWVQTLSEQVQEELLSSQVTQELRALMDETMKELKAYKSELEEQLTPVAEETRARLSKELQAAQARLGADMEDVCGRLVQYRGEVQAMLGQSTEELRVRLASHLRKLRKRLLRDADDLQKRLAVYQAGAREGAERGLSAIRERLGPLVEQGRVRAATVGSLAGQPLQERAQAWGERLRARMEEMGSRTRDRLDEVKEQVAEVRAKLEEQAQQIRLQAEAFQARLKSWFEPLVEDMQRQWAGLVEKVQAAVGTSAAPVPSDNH

Target: human apolipoprotein E, apoE3 isoform (ε3 allele) (human) (UniProt P02649)
Experiment: co-IP

prion protein (PrP) (from UniProt P04925 23-230)
binding: binds
